The other results are listed elsewhere or left out. Most entries show no effect beyond the scatter of the controls.
Each target was assayed with CN[C@@H]1C[C@H]2O[C@@](C)([C@@H]1OC)n1c3ccccc3c3c4c(c5c6ccccc6n2c5c31)C(=O)NC4 [staurosporine] (assay: log2 fold change of tryptic peptide abundance, ligand vs vehicle (limited proteolysis) (log2 ratio); higher = more trypsin-susceptible (destabilized)). Conditions: ligand concentration: 20 uM; sample: mouse liver crude lysate; replicate design: treated separately.

Amino acid sequences for entries named in this document (tags omitted). A change or cut given only in a name is not applied to a line headed by its entry.
UniProt Q8K440: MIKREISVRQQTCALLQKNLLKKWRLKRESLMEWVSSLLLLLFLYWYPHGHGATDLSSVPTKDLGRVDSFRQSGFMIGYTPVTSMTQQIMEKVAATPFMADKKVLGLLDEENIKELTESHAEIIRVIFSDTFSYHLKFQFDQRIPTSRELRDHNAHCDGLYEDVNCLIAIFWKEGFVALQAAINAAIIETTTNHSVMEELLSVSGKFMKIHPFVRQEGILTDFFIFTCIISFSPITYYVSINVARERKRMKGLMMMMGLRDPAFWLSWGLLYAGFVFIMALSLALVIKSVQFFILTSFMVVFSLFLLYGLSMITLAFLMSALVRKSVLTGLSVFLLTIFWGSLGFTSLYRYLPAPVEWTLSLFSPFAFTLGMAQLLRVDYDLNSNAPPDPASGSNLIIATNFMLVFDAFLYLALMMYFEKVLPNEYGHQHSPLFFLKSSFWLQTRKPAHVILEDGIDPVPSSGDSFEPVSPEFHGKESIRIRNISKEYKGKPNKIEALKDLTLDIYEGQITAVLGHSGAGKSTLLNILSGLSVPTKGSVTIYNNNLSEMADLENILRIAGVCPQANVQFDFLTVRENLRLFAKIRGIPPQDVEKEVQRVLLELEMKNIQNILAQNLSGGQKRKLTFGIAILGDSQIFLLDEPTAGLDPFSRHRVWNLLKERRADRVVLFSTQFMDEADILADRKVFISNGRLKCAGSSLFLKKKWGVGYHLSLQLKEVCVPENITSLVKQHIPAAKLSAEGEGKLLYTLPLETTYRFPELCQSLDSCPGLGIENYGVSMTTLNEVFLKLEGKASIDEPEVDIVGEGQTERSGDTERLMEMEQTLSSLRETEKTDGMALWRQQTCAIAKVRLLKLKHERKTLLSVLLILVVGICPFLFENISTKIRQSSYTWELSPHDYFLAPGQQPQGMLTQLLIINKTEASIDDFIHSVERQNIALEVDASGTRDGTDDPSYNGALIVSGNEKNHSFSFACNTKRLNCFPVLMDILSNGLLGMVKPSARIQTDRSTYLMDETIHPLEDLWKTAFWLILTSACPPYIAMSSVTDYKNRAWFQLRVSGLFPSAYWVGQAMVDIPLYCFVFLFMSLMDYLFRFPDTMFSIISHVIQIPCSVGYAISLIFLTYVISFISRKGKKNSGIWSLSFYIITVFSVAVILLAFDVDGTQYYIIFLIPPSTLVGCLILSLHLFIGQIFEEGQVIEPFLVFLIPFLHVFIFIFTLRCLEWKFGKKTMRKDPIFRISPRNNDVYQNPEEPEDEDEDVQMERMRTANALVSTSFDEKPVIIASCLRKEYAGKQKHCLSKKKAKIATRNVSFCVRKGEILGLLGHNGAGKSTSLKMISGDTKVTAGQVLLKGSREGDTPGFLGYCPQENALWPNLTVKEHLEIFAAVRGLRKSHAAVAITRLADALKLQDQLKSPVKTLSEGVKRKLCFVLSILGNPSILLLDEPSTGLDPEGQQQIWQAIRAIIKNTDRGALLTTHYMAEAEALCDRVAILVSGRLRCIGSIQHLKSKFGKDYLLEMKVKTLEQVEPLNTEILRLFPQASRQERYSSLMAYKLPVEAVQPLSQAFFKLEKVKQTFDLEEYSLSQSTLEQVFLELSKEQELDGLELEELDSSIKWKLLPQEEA
UniProt Q8R1G6: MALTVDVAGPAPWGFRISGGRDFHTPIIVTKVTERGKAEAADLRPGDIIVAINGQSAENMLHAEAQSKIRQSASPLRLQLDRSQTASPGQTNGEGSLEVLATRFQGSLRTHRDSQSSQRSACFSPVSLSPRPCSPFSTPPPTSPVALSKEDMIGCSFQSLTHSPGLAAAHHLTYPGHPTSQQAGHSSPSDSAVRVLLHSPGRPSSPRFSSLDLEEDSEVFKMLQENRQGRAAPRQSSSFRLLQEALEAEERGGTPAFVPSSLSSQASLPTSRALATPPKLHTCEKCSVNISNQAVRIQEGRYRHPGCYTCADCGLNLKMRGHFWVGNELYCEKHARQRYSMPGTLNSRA
UniProt Q8K135: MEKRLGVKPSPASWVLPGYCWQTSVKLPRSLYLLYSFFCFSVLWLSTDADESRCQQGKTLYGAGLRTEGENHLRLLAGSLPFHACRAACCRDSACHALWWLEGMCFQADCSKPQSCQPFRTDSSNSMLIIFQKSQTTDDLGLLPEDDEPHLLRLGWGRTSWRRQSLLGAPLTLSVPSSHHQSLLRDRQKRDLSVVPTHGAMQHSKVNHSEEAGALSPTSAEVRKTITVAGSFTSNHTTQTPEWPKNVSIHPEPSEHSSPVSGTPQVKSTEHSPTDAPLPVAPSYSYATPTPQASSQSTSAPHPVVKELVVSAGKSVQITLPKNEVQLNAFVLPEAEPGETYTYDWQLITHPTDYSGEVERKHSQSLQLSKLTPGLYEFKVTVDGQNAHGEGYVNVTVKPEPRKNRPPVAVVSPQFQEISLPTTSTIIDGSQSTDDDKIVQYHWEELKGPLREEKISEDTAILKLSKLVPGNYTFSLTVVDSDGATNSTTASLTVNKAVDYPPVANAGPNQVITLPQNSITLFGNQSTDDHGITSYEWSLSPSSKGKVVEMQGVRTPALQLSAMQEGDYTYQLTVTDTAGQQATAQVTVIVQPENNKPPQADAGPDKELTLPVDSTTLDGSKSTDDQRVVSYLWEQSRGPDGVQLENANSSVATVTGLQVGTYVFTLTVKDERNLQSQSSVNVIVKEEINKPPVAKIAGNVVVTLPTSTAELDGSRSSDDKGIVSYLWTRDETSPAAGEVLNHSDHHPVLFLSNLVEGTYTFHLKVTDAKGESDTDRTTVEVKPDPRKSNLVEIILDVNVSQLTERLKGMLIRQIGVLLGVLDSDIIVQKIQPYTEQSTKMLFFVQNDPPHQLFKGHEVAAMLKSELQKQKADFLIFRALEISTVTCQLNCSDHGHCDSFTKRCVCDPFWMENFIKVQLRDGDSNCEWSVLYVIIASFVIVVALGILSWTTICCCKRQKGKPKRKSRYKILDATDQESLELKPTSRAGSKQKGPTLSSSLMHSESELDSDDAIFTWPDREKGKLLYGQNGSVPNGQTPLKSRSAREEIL
UniProt Q8K400: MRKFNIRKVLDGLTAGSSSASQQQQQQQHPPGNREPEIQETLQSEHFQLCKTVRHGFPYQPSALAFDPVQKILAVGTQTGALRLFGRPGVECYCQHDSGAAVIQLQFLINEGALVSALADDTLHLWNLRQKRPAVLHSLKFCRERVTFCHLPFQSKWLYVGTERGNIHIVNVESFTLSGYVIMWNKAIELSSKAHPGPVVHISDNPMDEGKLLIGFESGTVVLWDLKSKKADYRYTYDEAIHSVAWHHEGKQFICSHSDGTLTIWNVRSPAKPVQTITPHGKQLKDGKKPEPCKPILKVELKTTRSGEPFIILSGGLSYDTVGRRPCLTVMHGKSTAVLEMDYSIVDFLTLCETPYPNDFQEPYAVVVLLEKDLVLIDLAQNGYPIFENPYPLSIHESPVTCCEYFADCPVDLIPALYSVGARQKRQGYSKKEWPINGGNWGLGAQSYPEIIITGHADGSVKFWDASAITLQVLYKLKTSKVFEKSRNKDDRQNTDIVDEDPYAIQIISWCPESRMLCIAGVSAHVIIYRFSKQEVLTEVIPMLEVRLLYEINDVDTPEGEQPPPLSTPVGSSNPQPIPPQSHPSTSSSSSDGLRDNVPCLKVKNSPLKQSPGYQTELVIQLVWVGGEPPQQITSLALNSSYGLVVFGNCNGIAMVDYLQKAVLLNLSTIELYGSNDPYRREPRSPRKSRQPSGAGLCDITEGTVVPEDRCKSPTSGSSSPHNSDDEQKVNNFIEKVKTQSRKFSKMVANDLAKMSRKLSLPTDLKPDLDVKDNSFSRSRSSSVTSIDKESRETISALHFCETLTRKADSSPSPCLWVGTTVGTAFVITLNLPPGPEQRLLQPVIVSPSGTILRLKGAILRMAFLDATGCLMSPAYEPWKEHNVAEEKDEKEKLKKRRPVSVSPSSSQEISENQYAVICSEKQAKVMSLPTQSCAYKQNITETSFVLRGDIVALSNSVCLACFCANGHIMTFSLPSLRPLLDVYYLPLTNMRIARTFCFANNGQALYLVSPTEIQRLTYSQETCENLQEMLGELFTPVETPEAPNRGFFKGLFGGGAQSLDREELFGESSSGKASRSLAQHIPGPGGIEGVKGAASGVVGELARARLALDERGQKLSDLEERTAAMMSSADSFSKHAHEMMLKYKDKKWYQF
UniProt Q8K4J6: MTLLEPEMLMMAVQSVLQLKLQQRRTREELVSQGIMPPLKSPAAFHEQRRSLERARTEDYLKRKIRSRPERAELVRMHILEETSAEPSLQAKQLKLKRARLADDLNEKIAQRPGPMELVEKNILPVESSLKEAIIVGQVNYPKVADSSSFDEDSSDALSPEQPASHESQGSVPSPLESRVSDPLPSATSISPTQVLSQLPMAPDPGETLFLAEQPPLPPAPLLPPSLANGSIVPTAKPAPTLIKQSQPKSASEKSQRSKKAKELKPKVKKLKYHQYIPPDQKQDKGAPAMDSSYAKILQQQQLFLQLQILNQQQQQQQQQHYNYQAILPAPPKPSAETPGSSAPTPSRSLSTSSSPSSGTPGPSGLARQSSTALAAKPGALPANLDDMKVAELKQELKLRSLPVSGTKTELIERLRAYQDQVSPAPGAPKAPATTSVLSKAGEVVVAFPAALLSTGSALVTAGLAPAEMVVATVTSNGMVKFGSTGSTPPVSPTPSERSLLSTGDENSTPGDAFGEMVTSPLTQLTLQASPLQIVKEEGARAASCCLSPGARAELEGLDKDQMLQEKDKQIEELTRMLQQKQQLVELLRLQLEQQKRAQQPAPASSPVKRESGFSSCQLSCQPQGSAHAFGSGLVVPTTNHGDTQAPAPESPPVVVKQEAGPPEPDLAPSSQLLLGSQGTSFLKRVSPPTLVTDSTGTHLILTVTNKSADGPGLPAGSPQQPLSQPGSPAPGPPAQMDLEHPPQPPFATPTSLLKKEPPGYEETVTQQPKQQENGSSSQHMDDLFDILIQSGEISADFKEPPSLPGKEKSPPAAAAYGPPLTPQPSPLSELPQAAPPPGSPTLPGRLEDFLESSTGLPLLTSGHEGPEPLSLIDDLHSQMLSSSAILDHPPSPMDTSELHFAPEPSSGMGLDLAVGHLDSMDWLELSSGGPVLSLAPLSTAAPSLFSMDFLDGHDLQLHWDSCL

Target | log2 fold change
UniProt Q8K2Y7 (peptide sequence: FFAMPYVDR, peptide start residue: 201) | 0.198
UniProt Q8K440 (peptide sequence: VLLELEMK, peptide start residue: 599) | -0.535
UniProt Q8R1G6 (peptide sequence: YRHPGCYTCADCGLNLK, peptide start residue: 302) | -0.691
UniProt Q8K135 (peptide sequence: ILDATDQESLELKPTSR, peptide start residue: 969) | -0.0449
UniProt Q8K400 (peptide sequence: HAHEMMLK, peptide start residue: 1136) | 0.323
UniProt Q8K4J6 (peptide sequence: GAPAMDSSYAK, peptide start residue: 286) | -0.271

Part of the list above, with tabs.
Target	log2 fold change
UniProt Q8R1G6 (peptide sequence: YRHPGCYTCADCGLNLK, peptide start residue: 302)	-0.691
UniProt Q8K135 (peptide sequence: ILDATDQESLELKPTSR, peptide start residue: 969)	-0.0449
